Results are given in words; binding and its absence hold for the method and conditions named. In cells and extracts the contact can be indirect. Some binding calls cover weakened binding; strength is not graded here. Where a sequence is shown, tags or fusion partners need not be part of it.
Biological target: endogenous CREB1 (cAMP Responsive Element Binding Protein 1) of HEK293 cells (UniProt P16220)
Assay: co-immunoprecipitation from transfected HEK293 cells (M2-agarose anti-FLAG beads), Western blot with anti-CREB antibody

By UniProt entry, the sequences of proteins in these tests, tags left out.
UniProt P16220: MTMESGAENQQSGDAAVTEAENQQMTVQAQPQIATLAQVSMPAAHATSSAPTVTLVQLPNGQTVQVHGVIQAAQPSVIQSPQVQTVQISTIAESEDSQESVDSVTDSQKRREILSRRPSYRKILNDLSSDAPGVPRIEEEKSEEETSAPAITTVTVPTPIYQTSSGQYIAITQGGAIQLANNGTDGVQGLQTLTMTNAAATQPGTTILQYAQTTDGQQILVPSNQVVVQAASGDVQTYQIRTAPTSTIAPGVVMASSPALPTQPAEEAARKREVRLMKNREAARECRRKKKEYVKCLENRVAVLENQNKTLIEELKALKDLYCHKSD

- binding: binds
B1: K1 variant of CREAP1 (FLAG-tagged CREAP1 fragment, amino acids 1-170) (protein, not shown: small tags and cut ends)
chain: MATSNNPRKFSEKIALHNQKQAEETAAFEEVMKDLSLTRAARLQLQKSQYLQLGPSRGQYYGGSLPNVNQIGSGTMDLPFQPSGFLGEALAAAPVSLTPFQSSGLDTSRTTRHHGLVDRVYRERGRLGSPHRRPLSVDKHGRQADSCPYGTMYLSPPADTSWRRTNSDSA
